The target of this experiment is frizzled 5 (FZD5) (mouse (endogenous in mouse COBs)) (UniProt Q9EQD0). Briefly: co-IP; wild-type mouse COBs lysed (50 mM Tris-HCl pH 7.4, 150 mM NaCl, 1% Triton X-100, 1 mM EDTA, 1 mM EGTA, 50 mM NaF, 1 mM Na3VO4, 1 mM PMSF, protease inhibitors); immunoprecipitated with IgG control or anti-FZD5 antibody and protein G-conjugated agarose; immunoblotted; endogenous proteins. (A western blot detects proteins with antibodies after separation by electrophoresis.)

Chains of the proteins cited; added tags and fusions are not shown. Residues count along the entry.
UniProt Q9EQD0, residues 27-585: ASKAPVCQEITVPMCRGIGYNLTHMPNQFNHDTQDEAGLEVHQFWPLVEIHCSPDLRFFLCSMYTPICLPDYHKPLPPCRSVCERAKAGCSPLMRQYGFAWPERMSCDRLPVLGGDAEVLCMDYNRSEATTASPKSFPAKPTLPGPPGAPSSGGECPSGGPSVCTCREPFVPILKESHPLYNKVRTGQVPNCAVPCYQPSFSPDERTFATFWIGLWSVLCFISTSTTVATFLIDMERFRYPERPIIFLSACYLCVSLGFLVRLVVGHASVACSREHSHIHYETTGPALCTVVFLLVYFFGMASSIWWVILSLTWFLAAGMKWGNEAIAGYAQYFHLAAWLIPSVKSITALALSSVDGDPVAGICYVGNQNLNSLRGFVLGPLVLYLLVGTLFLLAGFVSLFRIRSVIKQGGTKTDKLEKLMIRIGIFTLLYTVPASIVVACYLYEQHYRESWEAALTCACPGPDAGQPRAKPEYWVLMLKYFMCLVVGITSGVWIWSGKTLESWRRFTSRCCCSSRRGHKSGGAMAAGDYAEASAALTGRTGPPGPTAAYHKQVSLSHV

These are yes or no findings as the source states them, for the method shown. In cells and extracts the contact can be indirect. Some entries that bind do so weakly or less than the wild type.

B1: ubiquitin-specific protease 8 (USP8) (enzyme, UniProt Q80U87 1-1080)
chain: MPAVASVPKELYLSSSLKDLNKKTEVKPEKTSTKNYIHSAQKIFKTAEECRLDRDEERAYVLYMKYVAVYNLIKKRPDFKQQQDYYLSILGPANIKKAIEEAERLSESLKLRYEEAEVRKQLEEKDRREEEQLQQQKRQEMGREDSGAAAKRSVENLLDSKTKTQRINGEKSEGAAAAERGAITAKELYTMMMDKNTSLIIMDARKIQDYQHSCILDSLSVPEEAISPGVTASWIEANLSDDSKDTWKKRGSVDYVVLLDWFSSAKDLLLGTTLRSLKDALFKWESKTVLRHEPLVLEGGYENWLLCYPQFTTNAKVTPPPRSRAEEVSVSLDFTYPSLEEPVPSKLPTQMPPPPIETNEKALLVTDQDEKLRLSTQPALAGPGAAPRAEASPIIQPAPATKSVPQVDRTKKPSVKLPEDHRIKSENTDQSGRVLSDRSTKPVFPSPTTMLTDEEKARIHQETALLMEKNKQEKELWDKQQKEQKEKLRREEQERKAGKTQDADERDSTENQHKAKDGQEKKDSKQTKTEDRELSADGAQEATGTQRQSKSEHEASDAKVPVEGKRCPTSEAQKRPADVSPASVSGELNAGKAQREPLTRARSEEMGRIVPGLPLGWAKFLDPITGTFRYYHSPTNTVHMYPPEMAPSSAPPSTPPTHKVKPQVPAERDREPSKLKRSYSSPDITQALQEEEKRRPAVTPMVNRENKPPCYPKAEISRLSASQIRNLNPVFGGSGPALTGLRNLGNTCYMNSILQCLCNAPHLADYFNRNCYQDDINRSNLLGHKGEVAEEFGIIMKALWTGQYRYISPKDFKVTIGKINDQFAGSSQQDSQELLLFLMDGLHEDLNKADNRKRHKEENNEHLDDLQAAEHAWQKHKQLNESIIVALFQGQFKSTVQCLTCRRRSRTFEAFMYLSLPLASTSKCTLQDCLRLFSKEEKLTDNNRFYCSHCRARRDSLKKIEIWKLPPVLLVHLKRFSYDGRWKQKLQTSVDFPLENLDLSQYVIGPKNSLKKYNLFSVSNHYGGLDGGHYTAYCKNAARQRWFKFDDHEVSDISVSSVRSSAAYILFYTSLGPRITDVAT
As for B1, the binding entry is listed as “binds”.

The values are drawn from paper PMC8508692.
